# Test results as given in paper doi:10.1101/2024.12.16.628704.
# Chains of the proteins cited; added tags and fusions are not shown. Residues count along the entry.
# UniProt P31994, residues 43-310: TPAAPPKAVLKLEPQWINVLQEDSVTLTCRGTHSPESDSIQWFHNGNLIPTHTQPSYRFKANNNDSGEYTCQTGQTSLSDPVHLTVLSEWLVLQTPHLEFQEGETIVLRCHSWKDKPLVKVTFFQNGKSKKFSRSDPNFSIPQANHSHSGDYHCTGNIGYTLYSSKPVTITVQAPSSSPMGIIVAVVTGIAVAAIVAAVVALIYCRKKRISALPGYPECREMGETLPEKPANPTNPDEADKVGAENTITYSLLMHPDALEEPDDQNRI
# UniProt Q9NNX6: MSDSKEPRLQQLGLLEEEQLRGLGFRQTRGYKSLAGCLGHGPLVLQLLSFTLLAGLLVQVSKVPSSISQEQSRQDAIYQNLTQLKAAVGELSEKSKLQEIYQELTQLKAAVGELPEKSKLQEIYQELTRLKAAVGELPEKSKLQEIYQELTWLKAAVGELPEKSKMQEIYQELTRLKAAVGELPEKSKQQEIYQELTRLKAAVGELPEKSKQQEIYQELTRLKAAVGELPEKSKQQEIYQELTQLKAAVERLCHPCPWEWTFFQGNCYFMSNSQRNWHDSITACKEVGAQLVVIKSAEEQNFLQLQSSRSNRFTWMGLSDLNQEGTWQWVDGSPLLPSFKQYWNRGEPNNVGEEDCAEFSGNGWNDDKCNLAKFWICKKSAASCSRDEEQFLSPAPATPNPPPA
# No constants are given. Whether binding was seen depends on the method and setting. Binding seen in cells or lysates may run through a third protein. Some results given as binding are weak or reduced against the parent protein; the word gives no strength.
# Molecular target: FLAG-tagged FcγRIIB (human) (UniProt P31994)
# Test: co-IP
substance,measurement,value
HA-tagged DC-SIGN (from UniProt Q9NNX6 1-404) (receptor),binding,binds
